In assay [1] the target is C9 complement protein (UniProt P02748). As to the kind of experiment: ELISA, C9-coated plate.
The target of assay [2] is GPIIb/IIIa protein (UniProt P08514). The assay can be described thus: ELISA, GPIIb/IIIa-coated plate.
For assay [3] the target is unchanged. As to the kind of experiment: ELISA, GPIIb/IIIa-coated plate, periplasmic fraction. In general terms: In an ELISA, binding on a coated surface is turned into a signal by an enzyme label.
For assay [4], the target named is C9 complement protein (UniProt P02748). The assay can be described thus: ELISA, C9-coated plate, periplasmic fraction.
Assay [5] has as its target GPIIb/IIIa protein (UniProt P08514). The assay can be described thus: competitive ELISA, GPIIb/IIIa-coated plate, against CD59 F2 RGD3.
For assay [6] the target is unchanged. The assay can be described thus: competitive phage ELISA, GPIIb/IIIa-coated plate, against phage CD59/F2/RGD1.
The target of assay [7] is C9 complement protein (UniProt P02748). The assay can be described thus: phage ELISA, C9-coated plate.
Assay [8] concerns the target GPIIb/IIIa protein (UniProt P08514). The assay can be described thus: phage ELISA, GPIIb/IIIa-coated plate.

By UniProt entry, the sequences of proteins in these tests, tags left out. Where a name states a change or a piece, a line headed by the entry shows the natural chain unless it says otherwise. Residues count along the entry.
UniProt P02748, residues 22-559: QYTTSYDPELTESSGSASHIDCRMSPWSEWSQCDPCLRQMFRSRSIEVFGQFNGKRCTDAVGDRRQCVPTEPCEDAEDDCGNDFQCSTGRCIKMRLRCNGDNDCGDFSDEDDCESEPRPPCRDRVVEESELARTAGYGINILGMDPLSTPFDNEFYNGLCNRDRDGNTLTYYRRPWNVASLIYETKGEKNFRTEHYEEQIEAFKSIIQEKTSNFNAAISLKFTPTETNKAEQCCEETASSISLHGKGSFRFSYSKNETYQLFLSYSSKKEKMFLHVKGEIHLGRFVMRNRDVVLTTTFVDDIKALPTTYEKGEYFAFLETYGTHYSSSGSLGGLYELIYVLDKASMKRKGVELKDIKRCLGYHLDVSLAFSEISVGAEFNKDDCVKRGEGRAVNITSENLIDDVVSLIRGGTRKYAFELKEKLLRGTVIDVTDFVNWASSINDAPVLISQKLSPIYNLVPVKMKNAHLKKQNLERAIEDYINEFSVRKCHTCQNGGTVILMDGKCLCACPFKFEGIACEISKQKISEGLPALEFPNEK
UniProt P08514: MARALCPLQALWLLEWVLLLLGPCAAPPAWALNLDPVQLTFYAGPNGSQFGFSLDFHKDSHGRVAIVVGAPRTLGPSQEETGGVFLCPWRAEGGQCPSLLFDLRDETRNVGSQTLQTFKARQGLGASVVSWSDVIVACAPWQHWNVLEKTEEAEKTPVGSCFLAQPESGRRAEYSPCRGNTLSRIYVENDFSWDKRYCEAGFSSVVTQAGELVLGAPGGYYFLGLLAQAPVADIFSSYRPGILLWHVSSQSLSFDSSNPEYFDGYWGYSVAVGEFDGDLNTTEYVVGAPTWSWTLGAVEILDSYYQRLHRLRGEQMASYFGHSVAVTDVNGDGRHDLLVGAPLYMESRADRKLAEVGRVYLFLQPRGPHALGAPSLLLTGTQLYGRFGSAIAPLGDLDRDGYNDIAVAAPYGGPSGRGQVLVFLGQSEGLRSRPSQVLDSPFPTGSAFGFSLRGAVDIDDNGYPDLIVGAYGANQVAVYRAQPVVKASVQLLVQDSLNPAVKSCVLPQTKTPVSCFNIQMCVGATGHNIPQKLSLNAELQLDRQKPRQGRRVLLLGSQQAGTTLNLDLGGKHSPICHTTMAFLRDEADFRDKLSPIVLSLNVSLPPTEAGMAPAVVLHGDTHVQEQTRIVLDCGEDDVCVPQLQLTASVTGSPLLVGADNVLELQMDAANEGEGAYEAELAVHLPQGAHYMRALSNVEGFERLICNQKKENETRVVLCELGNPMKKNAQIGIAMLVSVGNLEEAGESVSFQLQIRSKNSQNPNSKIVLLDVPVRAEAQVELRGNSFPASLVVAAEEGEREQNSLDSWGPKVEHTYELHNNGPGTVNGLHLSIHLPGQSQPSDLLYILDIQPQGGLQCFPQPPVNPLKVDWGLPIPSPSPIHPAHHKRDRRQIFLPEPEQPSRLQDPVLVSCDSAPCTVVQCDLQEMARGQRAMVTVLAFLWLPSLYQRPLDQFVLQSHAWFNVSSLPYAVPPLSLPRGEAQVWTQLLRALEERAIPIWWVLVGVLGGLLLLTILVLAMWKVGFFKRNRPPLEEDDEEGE
UniProt P02671: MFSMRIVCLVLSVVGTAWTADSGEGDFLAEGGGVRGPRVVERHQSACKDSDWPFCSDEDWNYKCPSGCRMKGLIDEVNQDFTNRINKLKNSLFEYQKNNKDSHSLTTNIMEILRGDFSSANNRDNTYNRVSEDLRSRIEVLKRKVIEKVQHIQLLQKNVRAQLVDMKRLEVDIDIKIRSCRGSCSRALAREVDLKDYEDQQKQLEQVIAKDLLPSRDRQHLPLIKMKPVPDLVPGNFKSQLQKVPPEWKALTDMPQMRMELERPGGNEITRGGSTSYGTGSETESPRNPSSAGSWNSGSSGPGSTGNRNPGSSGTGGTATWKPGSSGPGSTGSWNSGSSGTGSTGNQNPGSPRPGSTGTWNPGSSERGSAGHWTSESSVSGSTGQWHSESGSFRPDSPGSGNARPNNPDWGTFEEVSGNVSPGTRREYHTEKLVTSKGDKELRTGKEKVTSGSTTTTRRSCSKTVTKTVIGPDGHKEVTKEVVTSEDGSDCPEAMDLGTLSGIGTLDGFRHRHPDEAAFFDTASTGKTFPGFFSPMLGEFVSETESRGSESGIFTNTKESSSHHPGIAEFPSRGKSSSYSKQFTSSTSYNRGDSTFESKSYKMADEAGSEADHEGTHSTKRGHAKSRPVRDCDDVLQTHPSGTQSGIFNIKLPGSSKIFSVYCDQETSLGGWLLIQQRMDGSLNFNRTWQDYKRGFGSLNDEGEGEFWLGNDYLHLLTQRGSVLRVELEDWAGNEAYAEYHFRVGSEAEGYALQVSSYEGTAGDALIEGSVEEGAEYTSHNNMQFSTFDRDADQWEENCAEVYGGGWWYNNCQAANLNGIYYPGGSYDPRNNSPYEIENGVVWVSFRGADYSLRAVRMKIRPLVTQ

No constants are given. Whether binding was seen depends on the method and setting. Some binding calls cover weakened binding; strength is not graded here. For some assays here: Sequences can lack the tags named with a protein.

For the molecule “CD59/F1/RGD3 (from UniProt P13987 26-35; P13987 38-102) (designed binder)”, the binding entry with C9 complement protein [1], in the assay with GPIIb/IIIa protein [2], with GPIIb/IIIa protein [3] and in the assay with C9 complement protein [4] was “binds” throughout.

In the case of “CD59/F2/RGD2 (from UniProt P13987 26-56; P13987 59-102) (designed binder)”, the binding result with C9 complement protein [1], with GPIIb/IIIa protein [2], with GPIIb/IIIa protein [3] and in the assay with C9 complement protein [4] was “binds” each time.

For “fibrinogen (from UniProt P02671 20-629; P02675 31-491; P02679 27-437) (ligand)”, the binding result in the assay with GPIIb/IIIa protein [5] and with GPIIb/IIIa protein [6] was “binds” in each case.

As to “phage CD59/F2/RGD2 (CD59-gIII fusion protein displayed on phage) (from UniProt P13987 26-56; P13987 59-102) (designed binder)”, the binding entry in the assay with C9 complement protein [7] and in the assay with GPIIb/IIIa protein [8] was “binds” in each case.

As for “phage CD59/F2/RGD3 (CD59-gIII fusion protein displayed on phage) (from UniProt P13987 26-56; P13987 59-102) (designed binder)”, the binding result with C9 complement protein [7] and with GPIIb/IIIa protein [8] was “binds” each time.

B1: CD59/F1/RGD1 (designed binder, not shown: small tags and cut ends)
chain: LQCYNCPNPTVARGDWNCKTAVNCSSDFDACLITKAGLQVYNKCWKFEHCNFNDVTTRLRENELTYYCCKKDLCNFNEQLEN
Turning to B1, the binding entry in the assay with C9 complement protein [1], with GPIIb/IIIa protein [2], with GPIIb/IIIa protein [3] and with C9 complement protein [4] was “binds” throughout.

B2: human CD59 wild type, FLAG-tagged soluble protein (protein, UniProt P13987 26-102, looked up, not shown: small tags and cut ends)
chain: LQCYNCPNPTADCKTAVNCSSDFDACLITKAGLQVYNKCWKFEHCNFNDVTTRLRENELTYYCCKKDLCNFNEQLEN
Consider B2, for which the binding result with C9 complement protein [4] is reported as “binds”.

B3: phage wtCD59 (CD59-gIII fusion protein displayed on phage) (protein, human, UniProt P13987 26-102, looked up, not shown: small tags and cut ends; large carriers)
chain: LQCYNCPNPTADCKTAVNCSSDFDACLITKAGLQVYNKCWKFEHCNFNDVTTRLRENELTYYCCKKDLCNFNEQLEN
Turning to B3, in the assay with C9 complement protein [7], the binding entry is “binds”.

Values taken from US20120302492A1.
